Values from PubChem BioAssay AID1224826 (NIAID, 2016).

Screen: 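Regulators of Tlr4 signalling leading to Tnf-alpha expression in macrophages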 (primary screen)
System: RAW264.7 G9 macrophages from mouse bearing reporters for p65 (GFP) and the Tnf promoter (mCherry)
Reagent: siRNA pool against mouse genes, 100 nM
Duration: 16 h of LPS stimulation, after 2 days of siRNA transfection
Treatment: bacterial lipopolysaccharide (Salmonella minnesota R595), 10 ng/ml
Read-out: 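Nuclear mCherry signal of the Tnf promoter reporter measured by imaging after background removal, scaled to each plate median and turned into robust z-scores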
Reading the numbers: Tnf reporter robust z-score: higher = stronger Tnf promoter reporter signal after LPS
Call rule: 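Called active when robust z-score is at most -1.3, matching the median of the Tlr4 knock-down control, or over 3; control wells and wells with under 50 cells never active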
Meaning of the calls: active = Tnf reporter clearly lowered or raised; inactive = no clear change in Tnf reporter
The whole screen tested about 17,000 reagents; shown is an unselected part. Over the whole deposit, about 1,110 (6.6%) are marked active. 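Active means lowered or raised reporter signal; replicate intensities are raw and not normalised per plate.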 Not all columns of the deposit are shown.

The first 3 entries as a preview:
| target | Tnf reporter robust z-score | fewer than 50 cells in well | activity call |
| --- | --- | --- | --- |
| Mpv17l2 (MPV17 mitochondrial membrane protein-like 2) | – | fewer than 50 cells per well; well left out of calls | inactive |
| Wdr35 (WD repeat domain 35) | 1.16 | enough cells in well | inactive |
| Emc8 (ER membrane protein complex subunit 8) | 0.99 | enough cells in well | inactive |

The list itself, from the start:
| target | Tnf reporter robust z-score | fewer than 50 cells in well | activity call |
| --- | --- | --- | --- |
| Mpv17l2 (MPV17 mitochondrial membrane protein-like 2) | – | fewer than 50 cells per well; well left out of calls | inactive |
| Wdr35 (WD repeat domain 35) | 1.16 | enough cells in well | inactive |
| Emc8 (ER membrane protein complex subunit 8) | 0.99 | enough cells in well | inactive |
| Serpina1e (serine (or cysteine) peptidase inhibitor, clade A, member 1E) | -0.1 | enough cells in well | inactive |
| Gdap1l1 | -0.38 | enough cells in well | inactive |
| Nucks1 | 0.06 | enough cells in well | inactive |
| Or5m10b (olfactory receptor family 5 subfamily M member 10B) | 0.92 | enough cells in well | inactive |
| Rnf139 (ring finger protein 139) | 0.84 | enough cells in well | inactive |
| Map1b (microtubule-associated protein 1B) | 2.08 | enough cells in well | inactive |
| Afg3l1 (AFG3-like AAA ATPase 1) | 0.68 | enough cells in well | inactive |
| Fgb (fibrinogen beta chain) | -0.79 | enough cells in well | inactive |
| Ythdc1 (YTH domain containing 1) | 1.21 | enough cells in well | inactive |
| Srpra (signal recognition particle receptor alpha) | -0.72 | enough cells in well | inactive |
| Or6c1 (olfactory receptor family 6 subfamily C member 1) | – | fewer than 50 cells per well; well left out of calls | inactive |
| Smox (spermine oxidase) | – | fewer than 50 cells per well; well left out of calls | inactive |
| Pklr (pyruvate kinase liver and red blood cell) | 1.47 | enough cells in well | inactive |
| Bmp2 (bone morphogenetic protein 2) | -1.4 | enough cells in well | active |
| Or12j5 (olfactory receptor family 12 subfamily J member 5) | -0.45 | enough cells in well | inactive |
| Lrwd1 (leucine-rich repeats and WD repeat domain containing 1) | 1.79 | enough cells in well | inactive |
| Stac2 (SH3 and cysteine rich domain 2) | 0.73 | enough cells in well | inactive |
| Dnajc5b (DnaJ heat shock protein family (Hsp40) member C5 beta) | 1.78 | enough cells in well | inactive |
| Pofut1 (protein O-fucosyltransferase 1) | -1.52 | enough cells in well | active |
| Suclg1 (succinate-CoA ligase, GDP-forming, alpha subunit) | 0.92 | enough cells in well | inactive |
| Nudc (nudC nuclear distribution protein) | 0.31 | enough cells in well | inactive |
| Ncoa4 (nuclear receptor coactivator 4) | 0.54 | enough cells in well | inactive |
| Itfg2 (integrin alpha FG-GAP repeat containing 2) | 2.57 | enough cells in well | inactive |
| Mospd1 (motile sperm domain containing 1) | 0.34 | enough cells in well | inactive |
| Brd3 (bromodomain containing 3) | -0.97 | enough cells in well | inactive |
| Or2bd2 (olfactory receptor family 2 subfamily BD member 2) | – | fewer than 50 cells per well; well left out of calls | inactive |
| Gabre (gamma-aminobutyric acid (GABA) A receptor, subunit epsilon) | 0.13 | enough cells in well | inactive |
| Ppia (peptidylprolyl isomerase A) | -0.62 | enough cells in well | inactive |
| Pdzk1 (PDZ domain containing 1) | 0 | enough cells in well | inactive |
| Or10aa1 (olfactory receptor family 10 subfamily AA member 1) | 1.18 | enough cells in well | inactive |
| Sptlc2 (serine palmitoyltransferase, long chain base subunit 2) | 0.28 | enough cells in well | inactive |
| Il4i1 (interleukin 4 induced 1) | 1.06 | enough cells in well | inactive |
| Or10a3b (olfactory receptor family 10 subfamily A member 3B) | -1.22 | enough cells in well | inactive |
| Pcdh1 (protocadherin 1) | – | fewer than 50 cells per well; well left out of calls | inactive |
| Bsx (brain specific homeobox) | – | fewer than 50 cells per well; well left out of calls | inactive |
| Casp4 (caspase 4, apoptosis-related cysteine peptidase) | -1.58 | enough cells in well | active |
| Eif4a3 (eukaryotic translation initiation factor 4A3) | – | fewer than 50 cells per well; well left out of calls | inactive |
